# From the supplement of paper PMC10849652
# Protein sequences, listed by entry. Tags and fused reporters are not part of them. Lines headed by an entry give the natural chain unless they say otherwise; changes in a name come on top.
# UniProt Q04637, whole entry, looked up: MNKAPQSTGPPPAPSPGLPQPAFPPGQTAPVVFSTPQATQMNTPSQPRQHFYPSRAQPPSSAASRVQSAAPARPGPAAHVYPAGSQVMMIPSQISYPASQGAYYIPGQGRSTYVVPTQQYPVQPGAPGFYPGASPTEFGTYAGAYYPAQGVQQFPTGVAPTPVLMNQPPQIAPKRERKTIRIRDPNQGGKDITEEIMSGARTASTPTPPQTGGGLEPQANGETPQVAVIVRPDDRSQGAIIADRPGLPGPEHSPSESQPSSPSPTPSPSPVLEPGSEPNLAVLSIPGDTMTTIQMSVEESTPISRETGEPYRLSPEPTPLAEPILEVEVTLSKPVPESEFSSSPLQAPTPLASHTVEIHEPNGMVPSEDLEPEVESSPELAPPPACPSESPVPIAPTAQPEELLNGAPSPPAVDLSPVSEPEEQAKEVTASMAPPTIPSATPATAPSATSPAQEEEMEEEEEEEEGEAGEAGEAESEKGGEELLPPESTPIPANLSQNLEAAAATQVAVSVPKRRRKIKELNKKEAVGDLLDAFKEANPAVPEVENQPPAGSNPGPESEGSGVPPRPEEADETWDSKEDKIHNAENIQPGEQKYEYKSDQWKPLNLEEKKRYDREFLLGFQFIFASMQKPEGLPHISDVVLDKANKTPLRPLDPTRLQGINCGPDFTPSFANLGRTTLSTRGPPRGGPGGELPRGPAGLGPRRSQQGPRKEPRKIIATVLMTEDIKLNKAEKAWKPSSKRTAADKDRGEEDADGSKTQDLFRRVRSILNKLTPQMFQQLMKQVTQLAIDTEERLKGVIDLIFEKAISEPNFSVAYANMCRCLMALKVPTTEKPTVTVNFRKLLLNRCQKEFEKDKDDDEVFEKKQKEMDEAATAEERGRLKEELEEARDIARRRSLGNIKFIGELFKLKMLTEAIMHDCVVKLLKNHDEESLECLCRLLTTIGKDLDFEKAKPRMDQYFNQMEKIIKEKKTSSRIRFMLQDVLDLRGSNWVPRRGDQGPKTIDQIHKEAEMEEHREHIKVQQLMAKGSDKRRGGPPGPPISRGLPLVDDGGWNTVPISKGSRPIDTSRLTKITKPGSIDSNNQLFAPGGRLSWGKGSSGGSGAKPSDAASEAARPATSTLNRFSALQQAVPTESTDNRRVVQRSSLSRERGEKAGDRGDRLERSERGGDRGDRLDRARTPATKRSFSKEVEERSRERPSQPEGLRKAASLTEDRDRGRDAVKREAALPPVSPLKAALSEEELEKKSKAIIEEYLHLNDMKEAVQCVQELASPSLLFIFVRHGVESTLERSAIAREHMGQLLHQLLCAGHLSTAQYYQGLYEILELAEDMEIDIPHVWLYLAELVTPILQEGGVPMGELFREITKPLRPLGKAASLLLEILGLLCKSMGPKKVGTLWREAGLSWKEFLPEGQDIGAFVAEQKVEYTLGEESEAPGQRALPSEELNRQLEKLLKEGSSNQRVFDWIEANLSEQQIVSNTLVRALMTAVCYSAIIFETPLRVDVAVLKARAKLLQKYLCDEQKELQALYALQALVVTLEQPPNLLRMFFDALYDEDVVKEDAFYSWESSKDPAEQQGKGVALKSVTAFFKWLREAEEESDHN
# UniProt P60228, whole entry, looked up: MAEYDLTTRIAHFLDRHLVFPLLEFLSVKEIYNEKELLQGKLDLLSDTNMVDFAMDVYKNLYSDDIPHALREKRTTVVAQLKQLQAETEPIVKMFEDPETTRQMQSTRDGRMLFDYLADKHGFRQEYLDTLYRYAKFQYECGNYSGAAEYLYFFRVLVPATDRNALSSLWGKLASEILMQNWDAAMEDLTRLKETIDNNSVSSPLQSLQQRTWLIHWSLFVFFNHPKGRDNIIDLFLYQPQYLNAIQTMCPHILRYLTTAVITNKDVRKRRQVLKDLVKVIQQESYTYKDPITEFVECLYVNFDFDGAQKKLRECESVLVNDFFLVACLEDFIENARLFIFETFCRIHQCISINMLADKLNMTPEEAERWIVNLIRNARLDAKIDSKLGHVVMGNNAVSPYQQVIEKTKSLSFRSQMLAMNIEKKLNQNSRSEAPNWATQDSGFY
# UniProt Q13542: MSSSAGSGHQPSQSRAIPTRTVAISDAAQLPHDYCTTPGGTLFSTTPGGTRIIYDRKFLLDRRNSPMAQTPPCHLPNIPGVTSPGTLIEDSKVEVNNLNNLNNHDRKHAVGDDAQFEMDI
# UniProt Q9NYP7: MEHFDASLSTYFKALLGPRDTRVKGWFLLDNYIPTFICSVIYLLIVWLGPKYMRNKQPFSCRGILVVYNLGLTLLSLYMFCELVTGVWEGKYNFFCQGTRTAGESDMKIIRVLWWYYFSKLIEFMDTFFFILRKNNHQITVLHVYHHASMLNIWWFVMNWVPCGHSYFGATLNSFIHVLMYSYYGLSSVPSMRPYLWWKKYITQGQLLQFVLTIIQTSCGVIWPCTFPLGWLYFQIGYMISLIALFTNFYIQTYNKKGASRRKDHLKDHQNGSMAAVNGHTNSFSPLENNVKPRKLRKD
# UniProt P07099: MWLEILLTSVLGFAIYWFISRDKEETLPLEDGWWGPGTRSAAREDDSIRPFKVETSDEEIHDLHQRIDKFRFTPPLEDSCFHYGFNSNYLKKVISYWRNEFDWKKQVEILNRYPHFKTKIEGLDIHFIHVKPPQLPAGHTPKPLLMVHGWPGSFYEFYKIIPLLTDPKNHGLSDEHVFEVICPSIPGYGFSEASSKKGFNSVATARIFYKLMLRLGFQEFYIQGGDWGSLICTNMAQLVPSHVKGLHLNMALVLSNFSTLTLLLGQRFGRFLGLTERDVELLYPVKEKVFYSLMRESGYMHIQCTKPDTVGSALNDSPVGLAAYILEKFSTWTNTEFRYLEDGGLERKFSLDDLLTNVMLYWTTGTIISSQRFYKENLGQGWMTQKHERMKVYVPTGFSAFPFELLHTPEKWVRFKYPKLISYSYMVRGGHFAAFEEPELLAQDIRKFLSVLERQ
# UniProt Q9BV81: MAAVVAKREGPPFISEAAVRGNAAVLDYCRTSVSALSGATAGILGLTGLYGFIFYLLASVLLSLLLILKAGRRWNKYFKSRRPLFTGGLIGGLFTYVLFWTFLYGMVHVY
# UniProt Q9P0I2: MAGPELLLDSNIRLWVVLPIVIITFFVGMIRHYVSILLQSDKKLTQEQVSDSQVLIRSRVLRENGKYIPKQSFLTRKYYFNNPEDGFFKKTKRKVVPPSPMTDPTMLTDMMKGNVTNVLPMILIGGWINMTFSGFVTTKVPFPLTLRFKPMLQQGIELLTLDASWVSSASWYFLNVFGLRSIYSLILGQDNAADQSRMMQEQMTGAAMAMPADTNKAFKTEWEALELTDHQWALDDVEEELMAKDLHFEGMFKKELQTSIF
# UniProt P63241: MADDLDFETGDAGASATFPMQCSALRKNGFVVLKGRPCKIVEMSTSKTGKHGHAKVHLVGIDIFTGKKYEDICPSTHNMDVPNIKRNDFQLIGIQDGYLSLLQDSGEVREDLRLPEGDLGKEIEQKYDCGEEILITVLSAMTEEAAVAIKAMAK
# UniProt P19447: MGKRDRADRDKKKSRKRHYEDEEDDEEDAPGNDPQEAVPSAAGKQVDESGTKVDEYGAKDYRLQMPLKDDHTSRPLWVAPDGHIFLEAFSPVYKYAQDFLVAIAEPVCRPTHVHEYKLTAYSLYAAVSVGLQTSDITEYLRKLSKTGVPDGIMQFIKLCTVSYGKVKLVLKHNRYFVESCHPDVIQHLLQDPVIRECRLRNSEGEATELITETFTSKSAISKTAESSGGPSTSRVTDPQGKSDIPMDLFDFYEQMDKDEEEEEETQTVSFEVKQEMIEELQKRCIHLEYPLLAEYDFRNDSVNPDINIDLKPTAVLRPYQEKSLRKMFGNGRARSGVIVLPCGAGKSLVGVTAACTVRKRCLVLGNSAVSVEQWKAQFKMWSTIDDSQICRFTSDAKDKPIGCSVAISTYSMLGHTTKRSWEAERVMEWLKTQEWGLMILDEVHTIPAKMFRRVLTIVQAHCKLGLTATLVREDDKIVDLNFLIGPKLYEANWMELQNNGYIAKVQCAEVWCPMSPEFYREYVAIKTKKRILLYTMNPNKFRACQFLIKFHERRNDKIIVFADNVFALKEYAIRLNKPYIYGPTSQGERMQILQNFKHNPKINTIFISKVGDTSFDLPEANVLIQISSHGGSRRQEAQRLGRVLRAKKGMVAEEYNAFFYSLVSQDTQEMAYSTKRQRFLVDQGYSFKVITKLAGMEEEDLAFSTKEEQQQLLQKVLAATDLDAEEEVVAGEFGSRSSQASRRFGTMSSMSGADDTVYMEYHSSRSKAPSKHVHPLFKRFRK
# UniProt O95208: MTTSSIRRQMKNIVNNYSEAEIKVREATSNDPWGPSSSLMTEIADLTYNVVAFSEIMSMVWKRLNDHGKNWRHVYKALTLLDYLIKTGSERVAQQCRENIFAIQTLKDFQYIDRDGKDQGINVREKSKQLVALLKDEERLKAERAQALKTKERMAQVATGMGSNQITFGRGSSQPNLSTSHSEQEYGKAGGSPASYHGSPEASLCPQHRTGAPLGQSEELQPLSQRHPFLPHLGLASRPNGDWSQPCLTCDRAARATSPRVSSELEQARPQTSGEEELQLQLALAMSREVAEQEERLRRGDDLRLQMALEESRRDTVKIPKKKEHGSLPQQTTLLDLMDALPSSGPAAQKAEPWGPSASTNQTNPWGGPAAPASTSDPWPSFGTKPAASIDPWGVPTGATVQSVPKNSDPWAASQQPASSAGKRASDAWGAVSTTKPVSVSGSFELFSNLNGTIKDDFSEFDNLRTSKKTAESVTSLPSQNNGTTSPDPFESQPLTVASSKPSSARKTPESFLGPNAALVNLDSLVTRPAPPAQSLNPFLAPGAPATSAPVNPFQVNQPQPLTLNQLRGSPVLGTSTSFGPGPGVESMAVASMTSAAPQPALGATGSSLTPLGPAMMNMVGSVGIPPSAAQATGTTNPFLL
# UniProt Q7L2H7, whole entry, looked up: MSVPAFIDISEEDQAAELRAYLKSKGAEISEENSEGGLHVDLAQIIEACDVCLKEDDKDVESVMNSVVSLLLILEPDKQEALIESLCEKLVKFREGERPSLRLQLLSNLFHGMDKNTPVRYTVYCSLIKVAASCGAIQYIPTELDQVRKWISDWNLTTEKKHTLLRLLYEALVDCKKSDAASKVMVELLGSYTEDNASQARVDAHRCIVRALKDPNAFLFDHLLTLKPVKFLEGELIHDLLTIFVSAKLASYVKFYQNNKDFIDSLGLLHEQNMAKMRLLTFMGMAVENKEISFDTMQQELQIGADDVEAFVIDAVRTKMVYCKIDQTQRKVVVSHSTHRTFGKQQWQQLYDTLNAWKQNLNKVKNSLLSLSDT
# Some of the results follow.
# Assays:
# Experiment in all cases: log2 fold change, soluble protein after heating vs DMSO (PISA); higher = thermal stabilisation; K562 lysate, 10 uM; active = over 0.2 and 3.5 SD of the protein, either way, in both replicates (recomputed)
# lapatinib = compound: CS(=O)(=O)CCNCc1ccc(-c2ccc3ncnc(Nc4ccc(OCc5cccc(F)c5)c(Cl)c4)c3c2)o1 [lapatinib]
# Procedure, shortened: (§1)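 To prepare the extract, K562 pellets were dounce-homogenised in PBS pH 7.4 with 1 mM MgCl2, giving crude material at 1 mg/mL protein. This was treated with 10 μM compound for 30 min, then heated in aliquots for 3 min over 48°C-58°C before pooling and addition of NP-40 to 0.5% at 4°C. Centrifugation at 21,000xg for 90 min left soluble protein in the supernatant, which TMTpro 16plex LC-MS/MS quantified with equalised channel sums. Results are log-two fold changes in thermal stability compared with solvent controls, from duplicates.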
# pictilisib = compound: CS(=O)(=O)N1CCN(Cc2cc3nc(-c4cccc5[nH]ncc45)nc(N4CCOCC4)c3s2)CC1 [pictilisib]
# Procedure, shortened: as §1
# crizotinib = compound: C[C@@H](Oc1cc(-c2cnn(C3CCNCC3)c2)cnc1N)c1c(Cl)ccc(F)c1Cl [crizotinib]
# Procedure, shortened: as §1
# [1] = compound: C[C@H](C1=CC=C(C=C1)C(=O)NC2=C3C=CNC3=NC=C2)N
# Procedure, shortened: as §1
# duvelisib = compound: C[C@H](Nc1ncnc2nc[nH]c12)c1cc2cccc(Cl)c2c(=O)n1-c1ccccc1 [duvelisib]
# Procedure, shortened: as §1
# gandotinib = compound: Cc1cc(Nc2cc(CN3CCOCC3)c3nc(C)c(Cc4ccc(Cl)cc4F)n3n2)n[nH]1 [gandotinib]
# Procedure, shortened: as §1
# tozasertib = compound: Cc1cc(Nc2cc(N3CCN(C)CC3)nc(Sc3ccc(NC(=O)C4CC4)cc3)n2)n[nH]1 [tozasertib]
# Procedure, shortened: as §1
# doramapimod = compound: Cc1ccc(-n2nc(C(C)(C)C)cc2NC(=O)Nc2ccc(OCCN3CCOCC3)c3ccccc23)cc1 [doramapimod]
# Procedure, shortened: as §1
# bafetinib = compound: Cc1ccc(NC(=O)c2ccc(CN3CC[C@H](N(C)C)C3)c(C(F)(F)F)c2)cc1Nc1nccc(-c2cncnc2)n1 [bafetinib]
# Procedure, shortened: as §1
# [2] = compound: Cc1cccc(CC(=O)N2CCc3c2ccc(-c2cn(C)c4ncnc(N)c24)c3F)n1
# Procedure, shortened: as §1
# nilotinib = compound: Cc1cn(-c2cc(NC(=O)c3ccc(C)c(Nc4nccc(-c5cccnc5)n4)c3)cc(C(F)(F)F)c2)cn1 [nilotinib]
# Procedure, shortened: as §1
# [3] = compound: Cc1nc(Nc2n[nH]c3c2CN(C(=O)N[C@H](CN(C)C)c2ccccc2)C3(C)C)c2sccc2n1
# Procedure, shortened: as §1
# dasatinib = compound: Cc1nc(Nc2ncc(C(=O)Nc3c(C)cccc3Cl)s2)cc(N2CCN(CCO)CC2)n1 [dasatinib]
# Procedure, shortened: as §1
# [4] = compound: Cc1ncc(-c2ccnc(Nc3ccc(S(C)(=O)=O)cc3)n2)n1C(C)C
# Procedure, shortened: as §1
# [5] = compound: Cn1cc(-c2ccc3c(c2)CCN3C(=O)Cc2cccc(C(F)(F)F)c2)c2c(N)ncnc21
# Procedure, shortened: as §1
# quisinostat = compound: Cn1cc(CNCC2CCN(c3ncc(C(=O)NO)cn3)CC2)c2ccccc21 [quisinostat]
# Procedure, shortened: as §1
# tipifarnib = compound: Cn1cncc1[C@@](N)(c1ccc(Cl)cc1)c1ccc2c(c1)c(-c1cccc(Cl)c1)cc(=O)n2C [tipifarnib]
# Procedure, shortened: as §1
# [6] = compound: NC(=O)Nc1cc(-c2cccc(F)c2)sc1C(=O)N[C@H]1CCCNC1
# Procedure, shortened: as §1
# [7] = compound: NC(=O)c1cnc(N[C@@H]2CCCC[C@@H]2N)nc1Nc1cccc(-n2nccn2)c1
# Procedure, shortened: as §1
# [8] = compound: NC1(c2ccc(-c3nc4ccn5c(=O)[nH]nc5c4cc3-c3ccccc3)cc2)CCC1
# Procedure, shortened: as §1
Target,log2 fold change (lapatinib),log2 fold change (pictilisib),log2 fold change (crizotinib),log2 fold change [1],log2 fold change (duvelisib),log2 fold change (gandotinib),log2 fold change (tozasertib),log2 fold change (doramapimod),log2 fold change (bafetinib),log2 fold change [2],log2 fold change (nilotinib),log2 fold change [3],log2 fold change (dasatinib),log2 fold change [4],log2 fold change [5],log2 fold change (quisinostat),log2 fold change (tipifarnib),log2 fold change [6],log2 fold change [7],log2 fold change [8]
EIF4G1 (UniProt Q04637),inactive: -0.003,inactive: 0.002,inactive: 0.013,inactive: 0.014,inactive: -0.002,inactive: -0.086,inactive: -0.016,inactive: -0.001,inactive: 0.009,inactive: -0.026,inactive: -0.003,inactive: 0.006,inactive: -0.019,inactive: 0.023,inactive: 0.016,inactive: -0.005,inactive: -0.001,inactive: 0.014,inactive: 0.003,inactive: 0.005
EIF4H (UniProt Q15056),inactive: 0.015,inactive: 0.009,inactive: 0.064,inactive: -0.019,inactive: -0.027,inactive: 0.042,inactive: 0.006,inactive: 0.014,inactive: 0.046,inactive: 0.007,inactive: -0.019,inactive: 0.005,inactive: 0.047,inactive: -0.07,inactive: 0.006,inactive: 0.007,inactive: 0.044,inactive: 0.022,inactive: 0.024,inactive: -0.004
EIF3E (UniProt P60228),inactive: -0.007,inactive: -0.035,inactive: -0.064,inactive: 0.007,inactive: 0.028,inactive: -0.078,inactive: -0.01,inactive: 0.102,inactive: -0.058,inactive: 0.05,inactive: -0.013,inactive: 0.013,inactive: -0.029,inactive: -0.041,inactive: 0.044,inactive: -0.034,inactive: -0.006,inactive: 0.046,inactive: 0.022,inactive: -0.044
EIF4EBP2 (UniProt Q13542),inactive: 0.133,inactive: 0.014,inactive: 0.103,inactive: 0.172,inactive: 0.027,inactive: -0.171,inactive: -0.008,inactive: -0.122,inactive: -0.06,inactive: -0.079,inactive: 0.009,inactive: 0.201,inactive: 0.034,inactive: 0.097,inactive: -0.062,inactive: 0.164,inactive: -0.065,inactive: -0.068,inactive: 0.029,inactive: 0.181
EIF6 (UniProt P56537),inactive: 0.002,inactive: 0.018,inactive: -0.018,inactive: -0.085,inactive: 0.015,inactive: 0.06,inactive: -0.049,inactive: 0.02,inactive: 0.038,inactive: 0.076,inactive: -0.03,inactive: 0.017,inactive: -0.004,inactive: 0.019,inactive: -0.002,inactive: 0.003,inactive: 0.011,inactive: 0.016,inactive: 0.008,inactive: -0.055
EPPK1 (UniProt P58107),inactive: -0.011,inactive: 0.084,inactive: -0.094,inactive: -0.008,inactive: -0.015,inactive: -0.023,inactive: 0.021,inactive: 0.055,inactive: -0.043,inactive: 0.041,inactive: 0,inactive: -0.001,inactive: -0.017,inactive: -0.003,inactive: -0.028,inactive: -0.084,inactive: -0.003,inactive: 0.056,inactive: 0.048,inactive: -0.035
ELOVL5 isoform 2 (UniProt Q9NYP7),inactive: 0.085,inactive: -0.028,inactive: -0.062,inactive: -0.099,inactive: 0.059,inactive: -0.205,inactive: -0.051,inactive: 0.023,inactive: -0.155,inactive: 0.298,inactive: -0.113,inactive: 0.015,inactive: -0.082,inactive: -0.09,inactive: -0.051,inactive: -0.089,inactive: -0.049,inactive: 0.079,inactive: 0.01,–
EPHX1 (UniProt P07099),inactive: -0.019,inactive: -0.025,inactive: -0.014,inactive: -0.026,inactive: -0.01,inactive: 0.045,inactive: 0.017,inactive: 0.002,inactive: -0.027,inactive: -0.005,inactive: -0.018,inactive: 0.018,inactive: 0.021,inactive: 0.005,inactive: 0.023,inactive: -0.076,inactive: -0.023,inactive: 0.001,inactive: -0.019,inactive: -0.006
"EIF4G3, A0A0U1RQK7",inactive: 0.015,inactive: -0.007,inactive: 0.007,inactive: -0.051,inactive: 0.006,inactive: -0.043,inactive: -0.015,inactive: -0.001,inactive: -0.028,inactive: 0.086,inactive: 0.019,inactive: -0.02,inactive: -0.025,inactive: 0.022,inactive: 0.018,inactive: -0.017,inactive: -0.045,inactive: 0.054,inactive: 0.02,inactive: 0.017
EMC6 (UniProt Q9BV81),inactive: 0.052,inactive: 0.022,inactive: -0.049,inactive: -0.014,inactive: 0,inactive: -0.037,inactive: 0.034,inactive: -0.098,inactive: -0.03,inactive: 0.054,inactive: 0.233,inactive: -0.02,inactive: 0.003,inactive: -0.162,inactive: -0.033,inactive: 0.038,inactive: -0.31,inactive: -0.076,inactive: 0.031,inactive: -0.082
EMC3 (UniProt Q9P0I2),inactive: -0.031,inactive: 0.004,inactive: 0.01,inactive: 0.004,inactive: 0.014,inactive: -0.043,inactive: 0.06,inactive: -0.029,inactive: -0.06,inactive: 0.054,inactive: 0.01,inactive: 0.008,inactive: -0.034,inactive: 0.036,inactive: 0.03,inactive: 0.055,inactive: 0.015,inactive: 0.018,inactive: 0.039,inactive: -0.016
ERC1 (UniProt X6RLX0),inactive: -0.005,inactive: -0.036,inactive: 0.034,inactive: 0.037,inactive: 0.014,inactive: 0.01,inactive: -0.007,inactive: -0.005,inactive: 0,inactive: -0.022,inactive: 0.024,inactive: 0.01,inactive: 0,inactive: -0.008,inactive: 0.004,inactive: -0.004,inactive: 0.034,inactive: -0.008,inactive: 0.009,inactive: 0.019
EIF5A isoform 2 (UniProt P63241),inactive: -0.005,inactive: -0.023,inactive: 0.031,inactive: 0.039,inactive: 0.011,inactive: -0.002,inactive: -0.003,inactive: -0.005,inactive: 0.031,inactive: -0.05,inactive: 0.025,inactive: -0.011,inactive: 0.018,inactive: 0.013,inactive: 0.004,inactive: 0.048,inactive: 0.014,inactive: -0.028,inactive: -0.008,inactive: -0.009
ERCC3 (UniProt P19447),inactive: 0.035,inactive: -0.016,inactive: -0.089,inactive: -0.002,inactive: -0.032,inactive: -0.116,inactive: 0,inactive: 0.039,inactive: -0.105,inactive: 0.039,inactive: -0.024,inactive: 0.01,inactive: -0.012,inactive: 0.027,inactive: 0.033,inactive: -0.067,inactive: 0.043,inactive: 0.055,inactive: -0.037,inactive: 0.027
EPN2 (UniProt O95208),inactive: -0.007,inactive: -0.037,inactive: -0.009,active: -0.407,inactive: 0.055,inactive: 0.165,inactive: -0.036,inactive: 0.065,inactive: -0.027,inactive: 0.093,inactive: -0.001,inactive: 0.01,inactive: -0.011,inactive: 0.017,inactive: 0.054,inactive: -0.016,inactive: -0.07,inactive: 0.021,inactive: 0.01,inactive: -0.016
EIF3M (UniProt Q7L2H7),inactive: 0.001,inactive: -0.006,inactive: 0.013,inactive: 0.133,inactive: -0.003,inactive: -0.078,inactive: -0.042,inactive: -0.048,inactive: 0.047,inactive: -0.037,inactive: 0.025,inactive: -0.019,inactive: 0.01,inactive: 0.033,inactive: -0.003,inactive: 0.087,inactive: 0.005,inactive: 0.013,inactive: -0.008,inactive: 0.005

# Looked up one by one from above (2):
Target,log2 fold change (lapatinib),log2 fold change (pictilisib),log2 fold change (crizotinib),log2 fold change [1],log2 fold change (duvelisib),log2 fold change (gandotinib),log2 fold change (tozasertib),log2 fold change (doramapimod),log2 fold change (bafetinib),log2 fold change [2],log2 fold change (nilotinib),log2 fold change [3],log2 fold change (dasatinib),log2 fold change [4],log2 fold change [5],log2 fold change (quisinostat),log2 fold change (tipifarnib),log2 fold change [6],log2 fold change [7],log2 fold change [8]
EIF4EBP2 (UniProt Q13542),inactive: 0.133,inactive: 0.014,inactive: 0.103,inactive: 0.172,inactive: 0.027,inactive: -0.171,inactive: -0.008,inactive: -0.122,inactive: -0.06,inactive: -0.079,inactive: 0.009,inactive: 0.201,inactive: 0.034,inactive: 0.097,inactive: -0.062,inactive: 0.164,inactive: -0.065,inactive: -0.068,inactive: 0.029,inactive: 0.181
EIF4H (UniProt Q15056),inactive: 0.015,inactive: 0.009,inactive: 0.064,inactive: -0.019,inactive: -0.027,inactive: 0.042,inactive: 0.006,inactive: 0.014,inactive: 0.046,inactive: 0.007,inactive: -0.019,inactive: 0.005,inactive: 0.047,inactive: -0.07,inactive: 0.006,inactive: 0.007,inactive: 0.044,inactive: 0.022,inactive: 0.024,inactive: -0.004
